Reference: the supplement of paper PMC4749390
Structures can show the parent of a compound that is named as a salt. The list shows a part of the results. Repeats in this data set agree poorly, so a single value says little.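 JEG3 cells stably carry tetracycline-induced wild-type human LRH-1, a heavily sumoylated nuclear receptor. APOC3 and MUC1 are SUMO-sensitive transcripts, raised by SUMO-less LRH-1 or UBC9 knockdown, measured by RT-qPCR against TBP and DMSO controls. A robust Z-score above +2 or below -2 marked a primary hit before toxicity and TBP filtering.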

system: JEG3 expressing hLRH-1; experiment: MUC1 transcript change (ddCt vs TBP and DMSO), Z-score over library; higher = higher MUC1 expression; conditions: 10 µM; time (hr): 24

Compound	MUC1 transcript change (Z-score)
CC(C)(CO)C(O)C(=O)NCCCO (stereo not drawn) [panthenol (dl)]	0.503
CCN(CC)CCc1nc(-c2ccccc2)no1 [oxolamine citrate]	-1.25
Cc1cccc(C)c1OCC(C)N (stereo not given) [mexiletine hydrochloride]	1.41
Cc1cnc(C(=O)O)c[n+]1[O-] [acipimox]	0.543
C[C@@H]1CC2C3C[C@H](F)C4=CC(=O)C=C[C@]4(C)[C@@]3(F)[C@@H](O)C[C@]2(C)[C@@]1(O)C(=O)CO (stereo not given in full) [flumethasone]	-1.17
C[N+](C)(C)C[C@H](O)CC(=O)O [levocarnitine]	1.29
CCN(CCCCOC(=O)c1ccc(OC)c(OC)c1)C(C)Cc1ccc(OC)cc1 (stereo not given) [mebeverine hydrochloride]	0.0222
O=C(N/N=C/c1ccc([N+](=O)[O-])o1)c1ccc(O)cc1 [nifuroxazide]	-0.347
N=C(N)N1CCc2ccccc2C1 [Debrisoquin sulfate]	0.452
COc1ccc2cc([C@H](C)C(=O)O)ccc2c1 [(+)naproxen]	0.303
NCCCC(=O)O	0.342
Cc1cc2c(s1)Nc1ccccc1N=C2N1CCN(C)CC1 [olanzapine]	-0.203
COc1ccccc1N1CCN(CCCNc2cc(=O)n(C)c(=O)n2C)CC1 [Urapidil hydrochloride]	-0.777
CCCCCCCCCCCCCCCCCCCCCCO [docosanol]	-2.42
COc1ccc(O)cc1 [mequinol]	0.479
C[C@@H]1CC2C3CCC4=CC(=O)C=C[C@]4(C)[C@@]3(F)[C@@H](O)C[C@]2(C)[C@@]1(O)C(=O)CO (stereo not given in full) [dexamethasone]	-0.615
CCn1cc(C(=O)O)c(=O)c2cc(F)c(N3CCNCC3)cc21 [norfloxacin]	-0.295
O=S(=O)(O)NC1CCCCC1 [cyclamic acid]	-0.656

Among those listed so far, these have four or more nitrogen atoms.
Compound	MUC1 transcript change (Z-score)
Cc1cc2c(s1)Nc1ccccc1N=C2N1CCN(C)CC1 [olanzapine]	-0.203
COc1ccccc1N1CCN(CCCNc2cc(=O)n(C)c(=O)n2C)CC1 [Urapidil hydrochloride]	-0.777

Later entries.

Compound	MUC1 transcript change (Z-score)
O=C(c1cccnc1)N1CCOCC1 [nicopholine]	-0.672
CO/N=C(/C(=O)N[C@@H]1C(=O)N2C(C(=O)O)=C(CSc3nc(=O)c(O)nn3C)CS[C@H]12)c1csc(N)n1 [ceftriaxone sodium trihydrate]	-0.373
C[C@](N)(Cc1ccc(O)c(O)c1)C(=O)O [L-alpha-Methyl DOPA]	0.991
CCCCN1CCCCC1C(=O)Nc1c(C)cccc1C (stereo not given) [bupivacaine hydrochloride]	0.223
CC[C@H](C)C(=O)O[C@H]1C[C@@H](C)C=C2C=C[C@H](C)[C@H](CC[C@@H]3C[C@@H](O)CC(=O)O3)[C@H]21 [lovastatin]	0.753
OCCN1CCN(CCCN2c3ccccc3Sc3ccc(C(F)(F)F)cc32)CC1 [Fluphenazine dihydrochloride]	-0.303
CC(=O)O[C@]1(C(C)=O)CCC2C3C=C(C)C4=CC(=O)CCC4(C)C3CCC21C (stereo not given in full) [megestrol acetate]	-0.392
O=C(NCC(O)CO)c1c(I)c(C(=O)NCC(O)CO)c(I)c(N(CCO)C(=O)CO)c1I (stereo not given) [ioversol]	0.695
CC1(C)O[C@@H]2CC3C4C[C@H](F)C5=CC(=O)CC[C@]5(C)C4[C@@H](O)C[C@]3(C)[C@]2(C(=O)CO)O1 (stereo not given in full) [flurandrenolide]	-1.38
C[C@@H]1CC[C@H]2[C@@H](C)C(O)O[C@@H]3O[C@@]4(C)CC[C@@H]1[C@]32OO4 (stereo not given in full) [artenimol]	-0.0586
CC(C)NCC(O)COc1ccc(CCOCC2CC2)cc1 (stereo not given) [betaxalol hydrochloride]	0.344
CC(=O)[C@@]1(O)CC[C@H]2[C@@H]3C[C@H](C)C4=CC(=O)C=C[C@]4(C)[C@@]3(F)[C@@H](O)C[C@@]21C [fluorometholone]	-0.368
CO/C(O)=C1\C(C)=NC(C)=C(C(=O)OCCN(C)Cc2ccccc2)C1c1cccc([N+](=O)[O-])c1 (stereo not given) [Nicardipine hydrochloride]	0.398
C[C@H](N[C@@H](CCc1ccccc1)C(=O)O)C(=O)N1CCC[C@H]1C(=O)O [enalaprilat]	0.64
COC1=C(OC)C(=O)C(CCCCCCCCCCO)=C(C)C1=O [idebenone]	-0.601
N[C@@H]1[C@@H](O)[C@H](O)[C@@H](CO)O[C@H]1O [glucosamine hydrochloride]	0.149
CN1CCN(CCCN2c3ccccc3Sc3ccc(C(F)(F)F)cc32)CC1 [Trifluoperazine dihydrochloride]	0.372
